# Test results as given in PubChem BioAssay AID504834 (National Center for Advancing Translational Sciences (NCATS), 2011).
# Screen size: about 320,000 compounds; about 22,000 (6.9%) were called active. Inconclusive means that the source gave no clear call. Such entries were picked first, then a sample of the others. Calls come from the whole dose curve; as a rule, active = well fitted inhibition curve with a large enough effect; inconclusive = small, poorly fitted or top-dose-only effect, or another doubt; inactive = no such curve, though single readings can be large or run the other way. A potency beside an inconclusive call is a rough fit, not a confirmed value.
# Experiment: Primary qHTS for delayed death inhibitors of the malarial parasite plastid, 96 hour incubation
# Conditions: P. falciparum luciferase reporter growth; series mostly up to 28.7 µM
# Procedure, shortened: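 Luminescence readout: decreased luciferase signal marks inhibited growth of reporter-expressing P. falciparum in infected red cells (2% hematocrit, 0.05% parasitemia final), exposed to compound two generations (96 h, 37 C, 5% CO2).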
# Potency is the fitted concentration of half-maximal effect.
row,SMILES,Potency
1,CCN(CC)S(=O)(=O)c1ccc(Cl)c(NC(=O)COC(=O)C2CCCCC2)c1,"inconclusive: 2.08 µM [inhibitor, single point]"
2,Cc1ccc(-n2c(Cc3cccn3C)nnc2SCC(N)=O)cc1,inactive
3,CCOC(=O)CN1N=C(/C=C/c2ccc(C(C)C)cc2)CCC1=O,inactive
4,Cc1ccc(C)c(S(=O)(=O)N2CCN(C(=O)[C@@H](NC(=O)c3ccc(F)cc3)C(C)C)CC2)c1,"inconclusive: 1.31 µM [inhibitor, partial curve, poor fit]"
5,CC(C)n1c(SCCCc2ccccc2)nc2c1c(=O)[nH]c(=O)n2C,"inconclusive: 1.17 µM [inhibitor, partial curve]"
6,CC(=O)c1ccccc1NS(=O)(=O)c1ccc2c(c1)CC(=O)N2,active: 4.65 µM
7,CCOc1ccc(/C=N/NC(N)=S)cc1,"inconclusive: 18.5 µM [inhibitor, single point]"
8,COC(=O)C1=C(c2ccc(-c3ccccc3)c(F)c2)C[C@@H]2CC[C@H]1N2C(=O)N1CCC(C)CC1,"inconclusive: 13.1 µM [inhibitor, single point]"
9,CCCCNC(=O)CN(c1cc(C(F)(F)F)ccc1Cl)S(C)(=O)=O,"inconclusive: 14.7 µM [inhibitor, single point]"
10,CCOc1ccc(NC(=O)CCc2ccc(C)o2)cc1,inactive
11,C=CCn1c(C)cc(C(=O)CN2C(=O)NC3(CCCc4ccccc43)C2=O)c1C (stereo not given),"inconclusive: 5.86 µM [inhibitor, partial curve, poor fit]"
12,O=c1c2c3c(sc2n2cnnc2n1C1CCCCC1)CCC3,"inconclusive: 5.86 µM [inhibitor, partial curve, poor fit]"
13,Cc1cc(NC(=O)c2cc([N+](=O)[O-])cc([N+](=O)[O-])c2C)no1,"inconclusive: 13.1 µM [inhibitor, partial curve, poor fit]"
14,COC(=O)c1cc(-c2ccc(OC)cc2)on1,"inconclusive: 18.5 µM [inhibitor, single point]"
15,COc1ccc(-c2nc(CS(=O)CC(=O)NC3CCC(C)CC3)c(C)o2)cc1OC (stereo not given),inactive
16,CN(C)CCNc1oc(COc2ccc(Cl)cc2Cl)nc1C#N,"inconclusive: 9.28 µM [inhibitor, single point]"
17,CN(CCCNC(=O)c1cccn2c(=O)c3ccccc3nc12)Cc1ccccc1,"inconclusive: 11.7 µM [inhibitor, single point]"
18,COc1ccccc1CNC(=O)C1(NC(=O)Nc2ccc(C)cc2)CCCCC1,"inconclusive: 10.4 µM [inhibitor, single point]"
19,CCc1ccc(CN2CCC(C(=O)Nc3ccc(-n4nc(C)cc4C)cc3)CC2)o1,"inconclusive: 11.7 µM [inhibitor, single point]"
20,COc1cccc(CNS(=O)(=O)c2cc(CN3C(=O)c4cccnc4C3=O)ccc2OC)c1,inactive
21,N#Cc1c(SCC(=O)Nc2cccc(C(F)(F)F)c2)sc2c(O)cc(=O)[nH]c12,inactive
22,CCOC(=O)N1CCN(S(=O)(=O)c2ccc(C(=O)NNc3nc4ccc(Cl)cc4s3)cc2)CC1,"inconclusive: 18.5 µM [inhibitor, single point]"
23,COc1ccc(CNC(=O)C2CCC(CNc3c(N4CCOCC4)c(=O)c3=O)CC2)cc1 (stereo not given),"inconclusive: 3.7 µM [inhibitor, partial curve, poor fit]"
24,O=C(N/N=C/c1cccnc1)c1ccc(CN2c3cccc4cccc(c34)S2(=O)=O)cc1,"inconclusive: 6.57 µM [inhibitor, partial curve, poor fit]"

row,SMILES,Potency
1,Cc1cc(C)nc(NC(N)=NCCc2c[nH]c3ccccc23)n1,inactive
2,CCCCN(CC)CCNC(=O)C1CCCN(S(=O)(=O)c2cccc3nsnc23)C1 (stereo not given),"inconclusive: 11.7 µM [inhibitor, single point]"
3,Cc1cc(NC(=O)/C=C/c2ccccc2Cl)n(-c2nc3ccccc3[nH]2)n1,"inconclusive: 2.94 µM [inhibitor, full curve]"
4,CC1(c2cccc(Br)c2)NC(=O)N(CC(=O)Nc2ccc(S(N)(=O)=O)cc2)C1=O (stereo not given),inactive
5,CC(/C=C\c1cccnc1)=C/C(=O)O,inactive
6,COCCC(=O)N1CCC(Oc2ccc(C(=O)NC3Cc4ccccc4C3)cc2)CC1,"inconclusive: 18.5 µM [inhibitor, single point]"
7,Cc1cc(NC(=O)c2cc([N+](=O)[O-])ccc2Cl)no1,inactive
8,CCOC(=O)C(CC)n1cnc2c(nnn2-c2ccc(F)cc2)c1=O (stereo not given),inactive
9,CCNC(=S)/N=C(/Nc1ccc(OC)cc1)Nc1nc(C)cc(C)n1,"inconclusive: 11.7 µM [inhibitor, single point]"
10,COC(CNc1cc(=O)oc2ccccc12)OC,inactive
11,Cc1cccc(N2CCN(C(=O)CC(NC(=O)c3ccccc3)c3ccccc3)CC2C)c1 (stereo not given),"inconclusive: 11.7 µM [inhibitor, partial curve, poor fit]"
12,CCCCC(CC)C(=O)NCCCN1CCN(CCCNC(=O)C(CC)CCCC)CC1 (stereo not given),inactive
13,CC[n+]1c(/C=C2/C=C(C)CC(C)C2)sc2ccccc21 (stereo not given),"inconclusive: 7.38 µM [inhibitor, partial curve, poor fit]"
14,CCCN(CC(=O)Nc1ccccc1C)C(=O)c1cccc(S(=O)(=O)N2CCN(c3ccccc3)CC2)c1,"inconclusive: 10.4 µM [inhibitor, single point]"
15,CCCCCn1c(=O)c(C(=O)Nc2ccccc2Cl)c(O)c2ccccc21,"inconclusive: 3.7 µM [inhibitor, partial curve, poor fit]"
16,CC[C@H](C)C(N)c1cn([C@@H](CC(N)=O)C(=O)N2CCNCC2)nn1 (stereo not given in full),inactive
17,CN(CCOc1ccc(-c2ccn(S(=O)(=O)c3ccc(Cl)cc3)n2)cc1)c1ccccn1,active: 10.4 µM
18,COc1ccc(OC)c(S(=O)(=O)N2CCC(C(=O)Nc3cccc(C)c3)CC2)c1,"inconclusive: 1.65 µM [inhibitor, partial curve, poor fit]"
19,O=C(O)C(CCCCN1C(=O)c2ccccc2C1=O)N1C(=O)c2ccccc2C1=O (stereo not given),active: 10.4 µM
20,CCCOc1ccc(OCCN2CCCC(C)C2)cc1 (stereo not given),inactive
21,CC1=CC(C)(C)Nc2ccccc21,inactive
22,CCS(=O)(=O)N1CCC(N2CCN(c3ccccc3)CC2)CC1,"inconclusive: 18.5 µM [inhibitor, single point]"
23,O=C(CN1CCN(Cc2ccc(F)cc2Cl)CC1)NCc1ccccc1,"inconclusive: 0.131 µM [inhibitor, partial curve, poor fit]"
24,Cc1cc(C(=O)Nc2cc(C)n(Cc3ccc(Cl)cc3)n2)no1,"inconclusive: 10.4 µM [inhibitor, partial curve, poor fit]"

# For convenience, some entries already given:
row,SMILES,Potency
9,CCNC(=S)/N=C(/Nc1ccc(OC)cc1)Nc1nc(C)cc(C)n1,"inconclusive: 11.7 µM [inhibitor, single point]"
10,COC(CNc1cc(=O)oc2ccccc12)OC,inactive
11,Cc1cccc(N2CCN(C(=O)CC(NC(=O)c3ccccc3)c3ccccc3)CC2C)c1 (stereo not given),"inconclusive: 11.7 µM [inhibitor, partial curve, poor fit]"
12,CCCCC(CC)C(=O)NCCCN1CCN(CCCNC(=O)C(CC)CCCC)CC1 (stereo not given),inactive

# Next compounds.

row,SMILES,Potency
1,Cn1cnnc1SCC(=O)Nc1cccc(S(=O)(=O)N2CCCCCC2)c1,"inconclusive: 10.4 µM [inhibitor, partial curve]"
2,COc1ccc(C(C)=O)cc1COc1cccc2cccnc12,"inconclusive: 11.7 µM [inhibitor, partial curve, poor fit]"
3,CCOc1ccc(NC(=O)c2ccco2)c([N+](=O)[O-])c1,active: 0.586 µM
4,COC(=O)c1ccc(C)c(-n2c(C)cc(C=O)c2C)c1,inactive
5,CCc1c(C)c(C#N)c2nc3ccccc3n2c1NCCOC,"inconclusive: 7.38 µM [inhibitor, partial curve, poor fit]"
6,Cc1nc2ccccn2c1C(=O)NC1CCCCC1,"inconclusive: 10.4 µM [inhibitor, single point]"
7,Cc1ccc(C(=O)NCCOc2ccc(Cl)cc2)cc1,inactive
8,O=C(COc1ccccc1)NCc1nnc2c3ccccc3c(-c3ccccc3)nn12,"inconclusive: 13.1 µM [inhibitor, single point]"
9,CC(=O)N(c1ccc2oc(=O)sc2c1)S(=O)(=O)c1ccccc1,inactive
10,CCN1CCN(CCCNC(=O)c2ccc3c(Cl)c4c(nc3c2)CCCC4)CC1,inactive
11,CC(NC(=O)Cc1ccccc1[N+](=O)[O-])c1ccccc1 (stereo not given),"inconclusive: 5.86 µM [inhibitor, single point]"
12,COc1ccc(/C=N/NC(=O)c2nn(-c3ccccc3)c(=O)c3c(N)scc23)cc1,"inconclusive: 0.0029 µM [inhibitor, full curve, poor fit]"
13,CN(C)c1ccc(C(=O)NC2(N3CCC3=O)CCCC2)cc1,"inconclusive: 18.5 µM [inhibitor, single point]"
14,N#C/C(=C(/O)CCl)c1nc2ccccc2[nH]1,active: 10.4 µM
15,COC(=O)c1sccc1NS(=O)(=O)c1ccccc1,"inconclusive: 3.29 µM [inhibitor, partial curve, poor fit]"
16,COc1ccccc1N1C(C)=CC(=C(C#N)c2nc3ccccc3s2)C=C1C,"inconclusive: 2.33 µM [inhibitor, full curve, poor fit]"
17,c1ccc(Nc2nc(-c3cccs3)cs2)nc1,"inconclusive: 4.65 µM [inhibitor, partial curve]"
18,O=C(CCCN1CCC(C(=O)c2ccc(F)cc2)CC1)c1ccc(F)cc1,inactive
19,Cn1ncc([N+](=O)[O-])c1C(=O)Nc1ccc(-c2nc3ccccc3[nH]2)cc1,"inconclusive: 14.7 µM [inhibitor, single point]"
20,O=C(NC1CC1)c1cccc(S(=O)(=O)N2CCOCC2)c1,"inconclusive: 2.94 µM [inhibitor, single point]"
21,O=C(NCc1ccccc1)c1nncc(-c2ccccc2)n1,"inconclusive: 16.5 µM [inhibitor, single point]"
22,Cn1c(=O)oc2cc(S(=O)(=O)NCCN3CCCCCC3)ccc21,"inconclusive: 0.522 µM [inhibitor, full curve]"
